The text below walks through data of patent US5985835A (priority 1997, dated 1999).

The nature of the data set: general procedure: solution-phase peptide synthesis; azide method (isoamylnitrite/HCl); DCC/HOBt. The note with it: acetate.

[ ]: non-standard residue; d: D form. The star is where a group is joined. Acm = CC(=O)NC*; Mpa = O=C(O)CCS Where only a bound is given, the exact number is not on record here.

With “Mpa(Acm)-Tyr-Phe-Gln-Asn-Cys(Acm)-Pro-D-Arg(HCl)-Gly-NH2”, the “crude HPLC purity” value (coupling step, HPLC, Lichrospher RP-18, UV detector at 220 nm) came to 94.5%. The substance also gave a step yield (coupling step) of 84.9%.

For “Mpa-Tyr-Phe-Gln-Asn-Cys-Pro-D-Arg-Gly-NH2”, the “final HPLC purity” value (oxidative folding step, UV 220 nm, one disulfide bridge, sequence written open) is on record as >98,5%.

Substance [Mpa](Acm)YFQNC(Acm)P-OH displayed a step yield (coupling step) of 85%.
